Source: publication doi:10.1101/2024.06.19.599365
No constants are given. Whether binding was seen depends on the method and setting. Binding seen in cells or lysates may run through a third protein. A yes stands for co-enrichment or nearness to the bait. Other partners may have been found.

Amino acid sequences for entries named in this document (tags omitted). Residues count along the entry.
UniProt P38398: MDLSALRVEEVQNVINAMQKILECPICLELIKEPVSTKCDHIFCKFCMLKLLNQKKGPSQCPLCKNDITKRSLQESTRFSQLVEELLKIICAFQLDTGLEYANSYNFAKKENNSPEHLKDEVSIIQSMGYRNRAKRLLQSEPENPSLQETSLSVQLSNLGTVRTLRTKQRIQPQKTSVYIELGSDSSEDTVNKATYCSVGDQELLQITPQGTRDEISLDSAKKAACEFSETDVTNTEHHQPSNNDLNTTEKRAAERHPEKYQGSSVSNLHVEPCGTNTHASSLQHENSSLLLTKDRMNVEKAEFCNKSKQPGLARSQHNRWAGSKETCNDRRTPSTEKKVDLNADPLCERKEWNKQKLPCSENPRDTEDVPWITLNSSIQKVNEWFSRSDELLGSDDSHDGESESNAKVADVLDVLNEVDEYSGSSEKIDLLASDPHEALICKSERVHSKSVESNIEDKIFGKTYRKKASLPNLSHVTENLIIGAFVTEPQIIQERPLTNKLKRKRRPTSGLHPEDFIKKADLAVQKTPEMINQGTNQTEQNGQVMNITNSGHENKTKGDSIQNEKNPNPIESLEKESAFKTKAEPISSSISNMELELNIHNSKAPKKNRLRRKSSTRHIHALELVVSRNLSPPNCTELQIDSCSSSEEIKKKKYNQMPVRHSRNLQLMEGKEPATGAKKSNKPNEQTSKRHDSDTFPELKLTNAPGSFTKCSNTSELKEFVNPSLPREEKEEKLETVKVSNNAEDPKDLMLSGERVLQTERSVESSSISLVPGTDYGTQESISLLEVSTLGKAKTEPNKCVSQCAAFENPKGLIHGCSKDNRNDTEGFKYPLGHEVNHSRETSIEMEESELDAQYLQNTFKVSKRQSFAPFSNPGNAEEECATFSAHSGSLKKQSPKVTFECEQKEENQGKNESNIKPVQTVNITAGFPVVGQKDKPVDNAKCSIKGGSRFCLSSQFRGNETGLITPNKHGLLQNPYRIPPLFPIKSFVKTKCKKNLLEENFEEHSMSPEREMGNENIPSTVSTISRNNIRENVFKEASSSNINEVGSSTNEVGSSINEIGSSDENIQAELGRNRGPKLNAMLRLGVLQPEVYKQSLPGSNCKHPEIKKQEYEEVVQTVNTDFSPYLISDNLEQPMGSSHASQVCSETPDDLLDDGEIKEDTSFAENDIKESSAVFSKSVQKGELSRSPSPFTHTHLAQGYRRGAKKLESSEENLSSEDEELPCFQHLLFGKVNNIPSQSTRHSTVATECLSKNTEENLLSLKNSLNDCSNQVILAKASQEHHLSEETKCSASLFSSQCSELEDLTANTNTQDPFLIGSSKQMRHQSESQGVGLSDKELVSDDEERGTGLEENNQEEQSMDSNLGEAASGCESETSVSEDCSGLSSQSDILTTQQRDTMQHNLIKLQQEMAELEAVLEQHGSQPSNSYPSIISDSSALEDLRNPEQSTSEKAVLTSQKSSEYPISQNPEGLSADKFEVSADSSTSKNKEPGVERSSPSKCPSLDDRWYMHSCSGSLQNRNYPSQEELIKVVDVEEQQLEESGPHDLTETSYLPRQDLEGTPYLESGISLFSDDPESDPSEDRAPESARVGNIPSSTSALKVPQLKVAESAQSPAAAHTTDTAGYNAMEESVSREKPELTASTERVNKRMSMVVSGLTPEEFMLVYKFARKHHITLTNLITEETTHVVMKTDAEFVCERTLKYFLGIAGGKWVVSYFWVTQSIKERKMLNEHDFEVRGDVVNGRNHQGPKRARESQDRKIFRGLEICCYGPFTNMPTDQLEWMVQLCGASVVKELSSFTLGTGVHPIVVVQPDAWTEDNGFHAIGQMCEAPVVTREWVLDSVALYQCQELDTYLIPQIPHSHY
UniProt Q9UBL3: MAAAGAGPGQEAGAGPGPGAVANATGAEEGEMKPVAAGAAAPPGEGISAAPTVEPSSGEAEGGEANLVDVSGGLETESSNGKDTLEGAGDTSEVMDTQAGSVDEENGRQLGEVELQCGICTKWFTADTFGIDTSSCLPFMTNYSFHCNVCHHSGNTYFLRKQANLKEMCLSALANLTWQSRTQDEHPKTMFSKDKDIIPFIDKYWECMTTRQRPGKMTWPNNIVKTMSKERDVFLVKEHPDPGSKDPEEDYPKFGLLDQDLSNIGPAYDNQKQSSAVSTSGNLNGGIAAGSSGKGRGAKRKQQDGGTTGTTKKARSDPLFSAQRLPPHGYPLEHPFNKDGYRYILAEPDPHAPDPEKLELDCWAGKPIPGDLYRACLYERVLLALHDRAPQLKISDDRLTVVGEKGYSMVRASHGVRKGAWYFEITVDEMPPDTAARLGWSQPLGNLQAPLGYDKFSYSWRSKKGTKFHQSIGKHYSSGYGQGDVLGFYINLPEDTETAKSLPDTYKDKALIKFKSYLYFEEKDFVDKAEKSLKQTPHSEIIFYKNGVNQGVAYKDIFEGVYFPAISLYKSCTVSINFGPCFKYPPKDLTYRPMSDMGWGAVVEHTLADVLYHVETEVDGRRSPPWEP
UniProt O15234: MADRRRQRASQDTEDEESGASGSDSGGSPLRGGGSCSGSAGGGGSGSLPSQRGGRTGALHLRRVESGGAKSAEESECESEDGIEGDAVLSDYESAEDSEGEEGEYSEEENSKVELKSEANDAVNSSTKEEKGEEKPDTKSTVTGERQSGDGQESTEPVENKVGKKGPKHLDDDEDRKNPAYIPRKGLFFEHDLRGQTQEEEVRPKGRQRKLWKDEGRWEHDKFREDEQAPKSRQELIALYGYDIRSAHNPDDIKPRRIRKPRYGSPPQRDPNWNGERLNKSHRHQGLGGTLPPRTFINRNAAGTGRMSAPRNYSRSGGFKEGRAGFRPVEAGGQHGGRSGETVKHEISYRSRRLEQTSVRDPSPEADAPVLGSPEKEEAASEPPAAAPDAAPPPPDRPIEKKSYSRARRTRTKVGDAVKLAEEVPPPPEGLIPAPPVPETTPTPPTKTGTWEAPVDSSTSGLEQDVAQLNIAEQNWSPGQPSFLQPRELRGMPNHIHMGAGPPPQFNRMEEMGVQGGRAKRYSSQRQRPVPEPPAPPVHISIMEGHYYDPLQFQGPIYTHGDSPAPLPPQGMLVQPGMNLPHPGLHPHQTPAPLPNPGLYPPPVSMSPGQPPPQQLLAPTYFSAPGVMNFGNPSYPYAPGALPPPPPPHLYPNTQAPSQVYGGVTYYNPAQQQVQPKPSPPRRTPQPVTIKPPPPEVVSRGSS
UniProt Q8N122: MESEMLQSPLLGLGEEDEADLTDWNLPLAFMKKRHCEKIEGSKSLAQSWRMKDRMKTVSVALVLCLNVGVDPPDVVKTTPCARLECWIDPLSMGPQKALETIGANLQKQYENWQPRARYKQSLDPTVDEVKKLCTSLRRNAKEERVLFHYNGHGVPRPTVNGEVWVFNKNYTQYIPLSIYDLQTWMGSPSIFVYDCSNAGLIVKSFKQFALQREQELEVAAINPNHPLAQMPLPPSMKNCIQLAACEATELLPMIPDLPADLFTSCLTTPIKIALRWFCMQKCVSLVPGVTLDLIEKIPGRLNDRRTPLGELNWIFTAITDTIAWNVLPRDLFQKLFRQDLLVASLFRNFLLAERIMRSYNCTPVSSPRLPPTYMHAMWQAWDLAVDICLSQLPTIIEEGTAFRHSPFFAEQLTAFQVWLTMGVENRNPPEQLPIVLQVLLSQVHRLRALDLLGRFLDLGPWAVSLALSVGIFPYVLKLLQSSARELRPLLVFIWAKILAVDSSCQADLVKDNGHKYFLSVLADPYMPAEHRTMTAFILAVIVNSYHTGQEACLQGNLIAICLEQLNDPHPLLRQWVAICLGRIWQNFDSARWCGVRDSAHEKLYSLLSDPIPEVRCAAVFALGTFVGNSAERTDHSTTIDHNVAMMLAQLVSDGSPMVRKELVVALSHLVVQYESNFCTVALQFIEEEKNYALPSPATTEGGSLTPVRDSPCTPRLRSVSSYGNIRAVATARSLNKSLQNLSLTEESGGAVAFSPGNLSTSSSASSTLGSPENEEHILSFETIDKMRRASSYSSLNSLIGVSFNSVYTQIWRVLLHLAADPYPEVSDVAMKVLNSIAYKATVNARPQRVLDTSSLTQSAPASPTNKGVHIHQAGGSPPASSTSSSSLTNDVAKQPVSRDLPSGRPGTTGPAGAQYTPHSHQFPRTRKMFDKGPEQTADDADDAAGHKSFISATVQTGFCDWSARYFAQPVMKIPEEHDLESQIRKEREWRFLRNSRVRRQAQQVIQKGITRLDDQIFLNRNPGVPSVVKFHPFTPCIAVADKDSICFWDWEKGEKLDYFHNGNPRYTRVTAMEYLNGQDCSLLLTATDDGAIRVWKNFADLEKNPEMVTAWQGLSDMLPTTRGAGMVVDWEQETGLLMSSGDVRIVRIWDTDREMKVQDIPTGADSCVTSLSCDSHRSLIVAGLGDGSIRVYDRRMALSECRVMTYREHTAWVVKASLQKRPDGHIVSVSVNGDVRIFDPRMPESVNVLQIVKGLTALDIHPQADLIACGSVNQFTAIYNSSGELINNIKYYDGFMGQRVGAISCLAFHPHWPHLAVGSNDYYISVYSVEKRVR
UniProt P02545, residues 1-646: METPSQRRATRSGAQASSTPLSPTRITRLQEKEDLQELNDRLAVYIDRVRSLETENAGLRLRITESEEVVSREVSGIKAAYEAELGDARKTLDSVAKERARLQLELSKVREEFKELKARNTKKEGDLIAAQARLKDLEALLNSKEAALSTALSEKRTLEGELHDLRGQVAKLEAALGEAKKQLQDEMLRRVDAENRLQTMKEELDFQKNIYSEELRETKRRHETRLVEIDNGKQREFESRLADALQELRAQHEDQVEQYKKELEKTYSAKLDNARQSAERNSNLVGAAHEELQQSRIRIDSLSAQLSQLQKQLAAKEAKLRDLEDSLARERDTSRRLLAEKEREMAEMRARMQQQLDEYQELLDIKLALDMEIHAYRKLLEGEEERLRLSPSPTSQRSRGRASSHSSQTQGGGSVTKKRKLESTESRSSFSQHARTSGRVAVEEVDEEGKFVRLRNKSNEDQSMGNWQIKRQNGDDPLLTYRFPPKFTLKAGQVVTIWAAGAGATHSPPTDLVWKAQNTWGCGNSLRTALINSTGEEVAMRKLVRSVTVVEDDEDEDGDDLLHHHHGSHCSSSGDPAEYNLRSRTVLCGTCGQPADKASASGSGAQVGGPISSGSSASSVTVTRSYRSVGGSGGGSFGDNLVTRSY
UniProt P11940: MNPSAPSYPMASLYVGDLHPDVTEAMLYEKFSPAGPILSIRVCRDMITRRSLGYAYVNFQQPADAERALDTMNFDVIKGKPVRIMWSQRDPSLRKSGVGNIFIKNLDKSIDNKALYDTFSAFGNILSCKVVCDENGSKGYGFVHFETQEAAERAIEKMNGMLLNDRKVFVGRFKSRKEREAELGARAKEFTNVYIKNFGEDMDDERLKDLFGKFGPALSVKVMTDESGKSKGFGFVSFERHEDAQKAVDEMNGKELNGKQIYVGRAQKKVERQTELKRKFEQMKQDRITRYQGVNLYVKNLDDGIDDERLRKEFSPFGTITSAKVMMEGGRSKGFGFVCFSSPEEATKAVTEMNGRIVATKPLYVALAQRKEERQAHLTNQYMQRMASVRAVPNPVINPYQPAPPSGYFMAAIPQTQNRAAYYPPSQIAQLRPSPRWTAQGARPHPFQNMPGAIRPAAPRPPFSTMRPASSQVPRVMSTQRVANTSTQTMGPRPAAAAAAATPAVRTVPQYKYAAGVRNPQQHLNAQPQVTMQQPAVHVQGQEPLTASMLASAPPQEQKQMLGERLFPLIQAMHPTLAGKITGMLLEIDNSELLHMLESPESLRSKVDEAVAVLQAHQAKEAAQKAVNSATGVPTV
UniProt Q15291: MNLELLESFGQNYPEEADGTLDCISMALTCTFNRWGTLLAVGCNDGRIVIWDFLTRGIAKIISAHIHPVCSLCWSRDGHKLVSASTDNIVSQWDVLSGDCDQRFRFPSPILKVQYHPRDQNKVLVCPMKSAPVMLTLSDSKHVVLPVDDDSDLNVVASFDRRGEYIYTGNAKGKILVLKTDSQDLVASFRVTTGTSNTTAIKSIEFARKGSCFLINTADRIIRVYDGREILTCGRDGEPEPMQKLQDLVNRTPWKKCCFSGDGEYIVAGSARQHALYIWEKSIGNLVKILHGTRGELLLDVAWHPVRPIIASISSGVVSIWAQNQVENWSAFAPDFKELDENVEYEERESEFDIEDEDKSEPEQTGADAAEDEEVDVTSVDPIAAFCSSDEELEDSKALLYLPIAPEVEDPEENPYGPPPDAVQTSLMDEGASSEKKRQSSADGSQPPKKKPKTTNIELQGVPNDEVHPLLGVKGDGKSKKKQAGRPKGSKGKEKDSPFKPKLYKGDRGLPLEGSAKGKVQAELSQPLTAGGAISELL

molecular target: BRCA1 (human (endogenous in PC3 and LNCaP)) (UniProt P38398); assay: affinity purification with mass spectrometry

| Molecule | binding |
| --- | --- |
| ASH2L (from UniProt Q9UBL3 1-628) | binds |
| CASC3 (from UniProt O15234 1-703) | binds |
| DDB1 (from UniProt Q16531 1-1140) | binds |
| KNTC1 (from UniProt P50748 1-2209) | binds |
| Raptor (from UniProt Q8N122 1-1335) (other; other documents disagree on this pair) | binds |
| USP9X (from UniProt Q93008 1-2554) | binds |
| HNRNPM (protein, UniProt P52272 1-730) MAAGVEAAAEVAATEIKMEEESGAPGVPSGNGAPGPKGEGERPAQNEKRKEKNIKRGGNRFEPYANPTKRYRAFITNIPFDVKWQSLKDLVKEKVGEVTYVELLMDAEGKSRGCAVVEFKMEESMKKAAEVLNKHSLSGRPLKVKEDPDGEHARRAMQKVMATTGGMGMGPGGPGMITIPPSILNNPNIPNEIIHALQAGRLGSTVFVANLDYKVGWKKLKEVFSMAGVVVRADILEDKDGKSRGIGTVTFEQSIEAVQAISMFNGQLLFDRPMHVKMDERALPKGDFFPPERPQQLPHGLGGIGMGLGPGGQPIDANHLNKGIGMGNIGPAGMGMEGIGFGINKMGGMEGPFGGGMENMGRFGSGMNMGRINEILSNALKRGEIIAKQGGGGGGGSVPGIERMGPGIDRLGGAGMERMGAGLGHGMDRVGSEIERMGLVMDRMGSVERMGSGIERMGPLGLDHMASSIERMGQTMERIGSGVERMGAGMGFGLERMAAPIDRVGQTIERMGSGVERMGPAIERMGLSMERMVPAGMGAGLERMGPVMDRMATGLERMGANNLERMGLERMGANSLERMGLERMGANSLERMGPAMGPALGAGIERMGLAMGGGGGASFDRAIEMERGNFGGSFAGSFGGAGGHAPGVARKACQIFVRNLPFDFTWKMLKDKFNECGHVLYADIKMENGKSKGCGVVKFESPEVAERACRMMNGMKLSGREIDVRIDRNA | binds |

The remaining lines, values ahead:

| binding | Molecule |
| --- | --- |
| binds | LMNA (from UniProt P02545 1-646) |
| binds | PABPC1 (from UniProt P11940 1-636) |
| binds | RBBP5 (from UniProt Q15291 1-538) |
| binds | UBA1 (from UniProt P22314 1-1058) |
